Reference: US20090053196A1
No constants are given. Whether binding was seen depends on the method and setting. In cells and extracts the contact can be indirect. Some entries that bind do so weakly or less than the wild type. Sequences can lack the tags named with a protein.

Target: T1, GST-CHN-1 (Caenorhabditis elegans)
T1 sequence: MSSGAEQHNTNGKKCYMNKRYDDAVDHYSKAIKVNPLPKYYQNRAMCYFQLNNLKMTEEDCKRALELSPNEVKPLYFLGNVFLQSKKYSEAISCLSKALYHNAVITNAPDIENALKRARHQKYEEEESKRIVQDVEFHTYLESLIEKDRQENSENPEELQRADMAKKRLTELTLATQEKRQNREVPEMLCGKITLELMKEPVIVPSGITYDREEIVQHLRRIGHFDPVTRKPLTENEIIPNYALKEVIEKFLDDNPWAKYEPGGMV
Test: GST pull-down in the reverse format, data not shown

binding: binds
B1: myc-tagged UFD-2 (^mycUFD-2) (enzyme, Caenorhabditis elegans, UniProt Q09349 1-984, looked up, not shown: small tags and cut ends)
chain: MIEDEKAGLQPMDISDASVFFFQADVESKDFLTSLFDCEGKSDDRMLRYADAIIDVQNLNFDVSPQCLQSNIAEIITKFVLLSQDGSRRGLSRSFNFIDPDIIAGCREEDAIEFLLINFVRCHHELGKSGTSNCYKKTLESTRKAVFSVFVMIQRGYLESQLRSQHASLVFTKRLLEDTVSNVFLRTLVEYLASTDECDEDAITETFNPIFGILRSGIICQRFEDNKDEIVRQILRVMNLLLSIRLPSNGPRPLSNLLVNREDFLPTPSEKIQGREFGLMSFLGPFFSYGLESSARRPNHRVFVDCEEDARKYDGSVNTEQKLYFQRMDPIRTMLHQLMLPLASDQGSRNKTLRWIATIISTNDIRTRSHYDPSDVLCDHYMTNFLSVMYMFSEKIDLSKIIVDYPFLPSSLINISKETRLKMDESGAVAFASQFADRPDEYHFSTVCFFLTIAAQRLVIPPLMNQISEYSRHLKELKHKINALKEKLNTVSGFERAEVEKKLNYETEHWKLMSRHLLCVKTQAQDPALMASSMDFVDKQMKFILNLLCDNLDLLGDDSQLPTEVSQMFCALPEYFLEDALDFYIFAISNGMKLLMERNADWISRLTVLFTQYHYIKSPFLVSKLVRVLSSIQPPLWFNVVRLRMAQENLLMCMIKFYSDFEDNGDFYEKFNVRGNIQYMLEKMEEDMFYKGKFMDMARECGAEFIRFVNMVINDATWCIDESLSGLKSIHDVEKKMANKVEWDNTDQEIRNQDLGVYEEAKRKVKGWLGTAKSNLKLLLSITVNSPEPFRTPVLGERLAAMLNHNLSQLIGSKASELKVKDPRSYGWEPREFVSLLISIYLKLNMPAFVKYIAYDERTYSPEFFHNAIECMRKNSIVGFSQLESFEHLAEDVKKEYEAKAELEEEYDDVPEEFKDPIMDAIMVDPVKLPSGHVMDRAVIERHLLSTPNNPFNRAPLSHNELSPDSELKAKIQEWICQKRNSKK
